Among the data in PubChem BioAssay AID662 (National Center for Advancing Translational Sciences (NCATS), 2007) are AC50 values, retold here.

The list shows a part of the results. The main result of the screen is listed elsewhere. These columns were measured beside it and carry no call. Compounds called inactive in the main read-out are mostly missing here. Potencies come from curve fits of mixed quality, noted in brackets.

The assay can be described thus: Cell signaling CRE-BLA (Fsk stim). Particulars: CHO CRE-bla reporter (cAMP response element driving beta-lactamase), forskolin EC10, beta-lactamase ratio; measured here: 460 nm blue channel. An outline of the steps:
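The 460nm/530nm emission ratio after CCF4 loading defined %Activity, from which AC50 values were obtained. CRE-bla CHO cells received compound dilution series together with an EC10 level of NKH 477 for 3 hours at 37 degrees Celsius.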
By AC50 is commonly meant the midpoint of the concentration-response curve, whichever way the signal moves. `CC(C)C(CO)NC(=O)CC(=O)NC(CO)C(C)C` (stereo not given): the AC50 was 0.398 µM [rising, partial curve, poor fit].
As for `CC(=O)Nc1sc2c(c1C#N)CCCCC2`, the AC50 was 10 µM [rising, single point].
Next, `O=C(c1cc2nc(-c3ccco3)cc(C(F)(F)F)n2n1)N1CCc2ccccc2C1`: 10 µM [rising, partial curve]; `CCOC(=O)c1cc2sccc2n1CCCN1C(=O)c2ccccc2C1=O`: 10 µM [rising, partial curve]; `CCCCOc1ncnc2c1[nH]c1ccc(F)cc12`: 10 µM [rising, partial curve].
Next, `O=C(CCN1CCCC1)Nc1cccc(Br)c1`: 12.6 µM [falling, partial curve]; `Cn1cnc2c1c(=O)n(Cc1cccc(Br)c1)c(=O)n2C`: 25.1 µM [rising, single point]; `Cc1cc(C)n(CCO)c(=O)n1`: 2 µM [falling, partial curve].
With `COc1ccccc1N1CCN(C(=O)c2cc(-c3cccs3)on2)CC1` the figure was 0.126 µM [falling, full curve]; with `COc1cccc(C2=NOC(C(=O)NCc3ccco3)C2)c1` (stereo not given), 5.01 µM [falling, single point]; with `CCN(CC)P1(=O)OC(c2cc(OC)c(OC)c(OC)c2)=Nc2c1c(C)nn2-c1ccccc1` (stereo not given), 25.1 µM [rising, single point].
Take `Cc1cc(NC(=O)Cn2c(=O)c3c(ncn3CCC(C)C)n(Cc3ccccc3)c2=O)no1`: the AC50 was 5.01 µM [falling, single point].
With `N=c1sc2ccccc2n1-c1ccccc1` the figure was 12.6 µM [rising, partial curve]; with `CN(C)c1ncc2nc(-c3cc(F)cc(F)c3)c(=O)n(CCc3ccccc3)c2n1`, 5.01 µM [rising, partial curve].
Next, `C=CCc1cc(C(=O)N2CCCCC2)ccc1O`: 7.94 µM [falling, partial curve]; `CCCC1CC(c2csc(N)n2)CCO1` (stereo not given): 12.6 µM [falling, single point].
As to `CCOC(=O)CC(=O)c1cc(OC)c(OC)c(OC)c1`, the AC50 is 5.01 µM [rising, partial curve].
Next, `Oc1ccc(Nc2nc(-c3ccc(O)cc3)cs2)cc1`: 15.8 µM [falling, partial curve].
Consider `Cn1nnnc1SCC(=O)Nc1cc(C(C)(C)C)nn1-c1ccccc1`, for which the AC50 is 5.01 µM [falling, single point].
With `Cn1c(-c2ccc(C(=O)c3ccccc3)s2)nc2ccccc21` the figure was 2 µM [rising, full curve].
With `COc1cc(NC(=O)c2cccc(Cl)c2)c(OC)cc1NC(=O)CN1CCOCC1` the figure was 5.01 µM [rising, full curve]; with `CCOC(=O)C(NC(=O)CC)(Nc1ccc(S(=O)(=O)Nc2cc(C)on2)cc1)C(F)(F)F` (stereo not given), 25.1 µM [rising, single point].
With `COCCNC(=O)COc1ccc(C)c(C)c1` the figure was 0.631 µM [falling, full curve, poor fit].
With `Cc1nn(-c2ccccc2)c2c1C(O)n1c(nc3ccccc31)S2` (stereo not given), the AC50 is 5.01 µM [falling, single point].
With `CCCS(=O)(=O)N1CCC(C(=O)NCCN(C)Cc2ccccc2)CC1` the figure was 0.00398 µM [falling, full curve, poor fit]; with `CC(=O)c1cc(-c2ccc(F)cc2)n(CC(=O)NCc2cccs2)c1C`, 2.51 µM [falling, full curve]; with `CCCC1=C(C(=O)OCC)C(c2ccc(N(C)C)cc2)n2ncnc2N1` (stereo not given), 15.8 µM [rising, partial curve].
Next, `O=C(/C=N/O)NCc1ccncc1`: 12.6 µM [falling, partial curve, poor fit]; `NC(=O)c1oc2ccccc2c1NC(=O)c1ccc(F)cc1`: 3.16 µM [rising, partial curve]; `O=C(CN1CCN(c2ccccn2)CC1)Nc1ccc(Oc2ccccc2)cc1`: 0.0158 µM [falling, full curve].
As to `O=C1C(=O)c2ccccc2C(O)=C1C(CCc1ccccc1)C1=C(O)c2ccccc2C(=O)C1=O`, the AC50 is 5.01 µM [rising, single point].
Next, `CCNc1ncc2nc(-c3cccs3)c(=O)n(Cc3cccc(OC)c3)c2n1`: 5.01 µM [rising, partial curve]; `CCOc1ccc(OCC)c(NC(=O)CSc2nc3ccccc3c(=O)n2C)c1`: 3.98 µM [rising, full curve]; `CCOC(=O)c1sc(NC(=O)CCn2nnc3ccccc32)c(C(=O)OCC)c1C`: 2.51 µM [rising, full curve].
Turning to `NS(=O)(=O)c1ccc(CCNC(=O)COC(=O)C2CCCN2C(=O)c2cccs2)cc1` (stereo not given), the AC50 is 3.16 µM [falling, single point].
With `Cc1cccc(CNc2ccnc(-c3ccoc3)n2)c1`, the AC50 is 5.01 µM [rising, single point].
Next, `CCCCn1c(NCc2ccccn2)nc2ccccc21`: 1.58 µM [falling, partial curve]; `Cc1cc(C)c(Cn2c(=O)n(CCCC(=O)NCc3ccco3)c(=O)c3ccccc32)c(C)c1`: 25.1 µM [rising, single point].
Regarding `COCC(=O)Nc1nnc(Cc2ccc(OC)c(OC)c2)s1`, the AC50 was 12.6 µM [rising, partial curve].
Next, `CSc1nc(-c2ccccc2)nc2c1COC(C)(C)C2`: 12.6 µM [rising, single point]; `O=C(c1csnn1)N1CCC[C@@]2(CCN(c3ccccn3)C2)C1`: 0.398 µM [falling, single point].
With `O=C(Oc1ccccc1)N1CCC2(CC1)CN(c1ccccn1)C2` the figure was 12.6 µM [falling, single point]; with `CCCCN(C)C(=O)c1sc2ncn(CC)c(=O)c2c1C`, 5.01 µM [rising, full curve].
Next, `CC(=O)Nc1ccc(N2C(=O)CSC2c2ccc(F)cc2)cc1` (stereo not given): 1 µM [rising, full curve]; `Cc1c(C(=O)N2CCOCC2)sc2ncnc(N3CCc4ccccc4C3)c12`: 0.2 µM [rising, full curve].
